Where a name gives a salt, the structure may show the parent alone. The list shows a part of the results. The data scatter; read single values as rough.

The test system of the test is Salmonella enterica serovar Typhimurium ST313 D23580. The test can be described thus: normalized bacterial growth (OD600 20 h minus 0 h, interquartile-mean normalized) (fraction of plate interquartile mean); higher = more bacterial growth (less inhibition). As to conditions: LPM (pH 5.8, low phosphate, low Mg2+), concentration: 10 µM, temperature: 37 °C.
`CC(=O)OCC(CCn1cnc2cnc(N)nc21)COC(C)=O` gave a normalized bacterial growth of 0.956.

Molecule `NCC(O)CC(=O)O` (centres undefined) showed a normalized bacterial growth of 1.21.

With `COc1c2occc2c(OC)c2c(=O)cc(C)oc12`, the normalized bacterial growth was found to be 1.13.

`C1CNCCN1` registered a normalized bacterial growth of 1.11.

For `COc1ccc(CCN(C)CCCC(C#N)(c2cc(OC)c(OC)c(OC)c2)C(C)C)cc1OC` (centres undefined) [()-Methoxyverapamil hydrochloride], the normalized bacterial growth is 0.534.

Molecule `Nc1cc(C(Cl)=C(Cl)Cl)c(S(N)(=O)=O)cc1S(N)(=O)=O` displayed a normalized bacterial growth of 0.963.

Regarding `CC[C@H](C)C(=O)O[C@H]1CCC=C2C=C[C@H](C)[C@H](CC[C@@H]3C[C@@H](O)CC(=O)O3)[C@H]21`, the normalized bacterial growth worked out at 0.772.

As to `O=C1c2ccccc2-n2c1nc1ccccc1c2=O`, the normalized bacterial growth came to 1.01.

On to `O=C(NCO)c1cccnc1`, for which the normalized bacterial growth was found to be 1.01.

`CO[C@@H]1[C@@H](OC(N)=O)[C@@H](O)[C@H](Oc2ccc3c(O)c(NC(=O)c4ccc(O)c(CC=C(C)C)c4)c(=O)oc3c2C)OC1(C)C` came in with a normalized bacterial growth of 0.864.

Molecule `CO[C@@H]1[C@@H](OC(N)=O)[C@@H](O)[C@H](Oc2ccc3c(O)c(NC(=O)c4ccc(O)c(CC=C(C)C)c4)c(=O)oc3c2C)OC1(C)C` [Novobiocin sodium salt] showed a normalized bacterial growth of 1.02.

Molecule `CC(=O)Oc1cccc(O)c1` showed a normalized bacterial growth of 1.03.

In turn, `C/C1=C\CCC(=O)C2CC(C)(C)C2CC1` (centres undefined) returned a normalized bacterial growth of 1.03.

Turning to `CCN1CCN(C(=O)N[C@@H](C(=O)N[C@@H]2C(=O)N3[C@@H]2SC(C)(C)[C@@H]3C(=O)O)c2ccccc2)C(=O)C1=O`, the normalized bacterial growth is 1.25.

The molecule `CCN1CCN(C(=O)N[C@@H](C(=O)N[C@@H]2C(=O)N3[C@@H]2SC(C)(C)[C@@H]3C(=O)O)c2ccccc2)C(=O)C1=O` [Piperacillin sodium salt] showed a normalized bacterial growth of 1.04.

`CC(=O)N[C@@H](CCC(=O)O)C(=O)O` gave a normalized bacterial growth of 0.715.

The molecule `CN1CCCC(n2nc(Cc3ccc(Cl)cc3)c3ccccc3c2=O)CC1` (centres undefined) had a normalized bacterial growth of 1.26.

On to `O=C(CNC(=O)c1ccc(Cl)cc1)NO`, for which the normalized bacterial growth is 1.13.

Take `COc1cc(OC)c(C=C2C(=O)Nc3ccccc32)c(OC)c1`: the normalized bacterial growth worked out at 0.763.

On to `CN1CCCCC1CCN1c2ccccc2Sc2ccc([S+](C)[O-])cc21` (centres undefined) [Mesoridazine besylate], for which the normalized bacterial growth stood at 0.737.

With `NC(=O)N/N=C/c1ccc([N+](=O)[O-])o1`, the normalized bacterial growth amounted to 1.4.

As to `NC(C(=O)O)C(O)C(=O)O` (stereo not drawn) ["d,l-threo-3-HYDROXYASPARTIC ACID"], the normalized bacterial growth was 1.24.

`Cc1ncc(CSSCc2cnc(C)c(O)c2CO)c(CO)c1O` came in with a normalized bacterial growth of 0.926.

Regarding `COC(=O)C1=CO[C@@H](O[C@@H]2O[C@H](CO)[C@@H](O)[C@H](O)[C@H]2O)[C@@H]2[C@@H](C)[C@@H](O)C[C@H]12`, the normalized bacterial growth amounted to 1.04.

`O=c1oc(Cl)c(Cl)c2ccccc12` ["3,4-Dichloroisocoumarin"] returned a normalized bacterial growth of 0.967.

Consider `N[C@H]1C(O)O[C@H](CO)[C@@H](O)[C@@H]1O` (some centres undefined), for which the normalized bacterial growth is 1.29.

Molecule `C=C1C[C@H]2[C@@H]3C=C(C)C4=CC(=O)CC[C@]4(C)[C@H]3CC[C@]2(C)[C@@]1(OC(C)=O)C(C)=O` displayed a normalized bacterial growth of 0.926.

`OC[C@H]1O[C@@H](Oc2ccc(O)cc2)[C@H](O)[C@@H](O)[C@@H]1O`: the normalized bacterial growth amounted to 1.15.

The molecule `Nc1ccc(S(=O)(=O)c2ccc(N)cc2)cc1` gave a normalized bacterial growth of 0.797.

For the molecule `O=C(O)[C@H]1C[C@H](C(=O)O)N1` ["trans-Azetidine-2,4-dicarboxylic acid"], the normalized bacterial growth worked out at 1.09.

The molecule `OCCN1CCN(CCCN2c3ccccc3Sc3ccc(Cl)cc32)CC1` [Perphenazine] returned a normalized bacterial growth of 1.16.

As for `CN(C)CCc1c[nH]c2ccc(Cn3cncn3)cc12`, the normalized bacterial growth turned out to be 1.44.

With `NCCCCCCCCCCN` ["1,10-Diaminodecane"], the normalized bacterial growth was 1.03.

`COc1cc(/C=C/C(=O)O)cc(OC)c1OC` registered a normalized bacterial growth of 0.969.

Turning to `CC1(C)OC(=O)NC1=O`, the normalized bacterial growth is 1.24.

As for `N=C(N)NCC1COC2(CCCCC2)O1` (centres undefined) [Guanadrel sulfate], the normalized bacterial growth amounted to 0.957.

`CCC[C@H](N[C@@H](C)C(=O)N1[C@H](C(=O)O)C[C@@H]2CCCC[C@@H]21)C(=O)OCC` came in with a normalized bacterial growth of 1.06.

`O=c1c(-c2ccc(O)cc2)coc2cc(O[C@@H]3O[C@H](CO)[C@@H](O)[C@H](O)[C@H]3O)cc(O)c12` displayed a normalized bacterial growth of 1.23.

The molecule `Cn1nnnc1SCC1=C(C(=O)O)N2C(=O)[C@@H](NC(=O)[C@H](O)c3ccccc3)[C@H]2SC1` [Cefamandole sodium salt] yielded a normalized bacterial growth of 1.2.

`Cn1nnnc1SCC1=C(C(=O)O)N2C(=O)[C@@H](NC(=O)[C@H](O)c3ccccc3)[C@H]2SC1`: the normalized bacterial growth was found to be 1.08.

`COc1ccc(NS(=O)(=O)c2ccc(N)cc2)nn1` displayed a normalized bacterial growth of 1.21.

`Nc1ccc(C(=O)NCC(=O)O)cc1` registered a normalized bacterial growth of 0.862.

Turning to `CCN(CC)CCNC(=O)c1cc(S(C)(=O)=O)ccc1OC` [Tiapride hydrochloride], the normalized bacterial growth came to 1.15.

Consider `O=C(CCCN1CC=C(n2c(=O)[nH]c3ccccc32)CC1)c1ccc(F)cc1`, for which the normalized bacterial growth came out at 0.543.

`O=C(CCCN1CC=C(n2c(=O)[nH]c3ccccc32)CC1)c1ccc(F)cc1` [Droperidol] came in with a normalized bacterial growth of 1.08.

With `Oc1c(I)cc(I)c2cccnc12`, the normalized bacterial growth amounted to 0.187.

The molecule `O=c1[nH]c2ccccc2c2ccccc12` [6(5H)-Phenanthridinone] had a normalized bacterial growth of 0.826.

`C#CCN(C)Cc1ccccc1` [Pargyline hydrochloride] showed a normalized bacterial growth of 1.18.

Molecule `CC(=O)O[C@H]1CC[C@@]2(C)[C@H](CC[C@@H]3[C@@H]2CC[C@]2(C)[C@@H]4[C@H](C[C@@H]32)O[C@]2(CC[C@@H](C)CO2)[C@H]4C)C1` displayed a normalized bacterial growth of 0.937.

Molecule `CCCCCC(C)N` (centres undefined) registered a normalized bacterial growth of 0.914.

For the molecule `COc1ccc2cc(CCC(C)=O)ccc2c1`, the normalized bacterial growth was 1.07.

In the case of `Cc1cccc(/C=C/c2ccccc2)n1`, the normalized bacterial growth turned out to be 0.913.

Molecule `O=C(O)CCC(=O)OC[C@@H](NC(=O)C(Cl)Cl)[C@H](O)c1ccc([N+](=O)[O-])cc1` gave a normalized bacterial growth of 0.601.

On to `CCOc1ccc(C(=O)c2cc(O)c(OC)c(OC)c2O)cc1`, for which the normalized bacterial growth was found to be 0.76.

With `CCn1cc(C(=O)O)c(=O)c2ccc(C)nc21`, the normalized bacterial growth was 0.0195.

The molecule `CCn1cc(C(=O)O)c(=O)c2ccc(C)nc21` [Nalidixic acid sodium] displayed a normalized bacterial growth of 0.0308.

In the case of `C[C@H]1[C@@H](O)O[C@@H]2O[C@@]3(C)CC[C@H]4[C@H](C)CC[C@@H]1[C@@]24OO3`, the normalized bacterial growth came out at 0.894.

`COc1ccc(-c2oc3c(CC=C(C)C)c(O[C@@H]4O[C@H](CO)[C@@H](O)[C@H](O)[C@H]4O)cc(O)c3c(=O)c2O[C@@H]2O[C@@H](C)[C@H](O)[C@@H](O)[C@H]2O)cc1` registered a normalized bacterial growth of 0.757.

In the case of `O=c1c(O)cccc2cc(O)c(O)c(O)c12`, the normalized bacterial growth was determined as 0.168.

The values are drawn from the supplement of paper PMC10398353.
